This note sets out measurements from publication PMC5823934.

The target in the experiment is epidermal growth factor receptor (EGFR) kinase (endogenous, RPE1 cells) (human (endogenous in RPE1)) (UniProt P00533). Description: co-IP; anti-EGFR immunoprecipitates from serum-fed or serum-starved RPE1 cell lysates; anti-USP8 and anti-EGFR immunoblots. Background: Immunoblotting shows a protein as a band on a membrane.

These are yes or no findings as the source states them, for the method shown. In cells and extracts the contact can be indirect. Some binding calls cover weakened binding; strength is not graded here.

B1: USP8 (endogenous, RPE1 cells) (enzyme, UniProt P40818 1-1118)
chain: MPAVASVPKELYLSSSLKDLNKKTEVKPEKISTKSYVHSALKIFKTAEECRLDRDEERAYVLYMKYVTVYNLIKKRPDFKQQQDYFHSILGPGNIKKAVEEAERLSESLKLRYEEAEVRKKLEEKDRQEEAQRLQQKRQETGREDGGTLAKGSLENVLDSKDKTQKSNGEKNEKCETKEKGAITAKELYTMMTDKNISLIIMDARRMQDYQDSCILHSLSVPEEAISPGVTASWIEAHLPDDSKDTWKKRGNVEYVVLLDWFSSAKDLQIGTTLRSLKDALFKWESKTVLRNEPLVLEGGYENWLLCYPQYTTNAKVTPPPRRQNEEVSISLDFTYPSLEESIPSKPAAQTPPASIEVDENIELISGQNERMGPLNISTPVEPVAASKSDVSPIIQPVPSIKNVPQIDRTKKPAVKLPEEHRIKSESTNHEQQSPQSGKVIPDRSTKPVVFSPTLMLTDEEKARIHAETALLMEKNKQEKELRERQQEEQKEKLRKEEQEQKAKKKQEAEENEITEKQQKAKEEMEKKESEQAKKEDKETSAKRGKEITGVKRQSKSEHETSDAKKSVEDRGKRCPTPEIQKKSTGDVPHTSVTGDSGSGKPFKIKGQPESGILRTGTFREDTDDTERNKAQREPLTRARSEEMGRIVPGLPSGWAKFLDPITGTFRYYHSPTNTVHMYPPEMAPSSAPPSTPPTHKAKPQIPAERDREPSKLKRSYSSPDITQAIQEEEKRKPTVTPTVNRENKPTCYPKAEISRLSASQIRNLNPVFGGSGPALTGLRNLGNTCYMNSILQCLCNAPHLADYFNRNCYQDDINRSNLLGHKGEVAEEFGIIMKALWTGQYRYISPKDFKITIGKINDQFAGYSQQDSQELLLFLMDGLHEDLNKADNRKRYKEENNDHLDDFKAAEHAWQKHKQLNESIIVALFQGQFKSTVQCLTCHKKSRTFEAFMYLSLPLASTSKCTLQDCLRLFSKEEKLTDNNRFYCSHCRARRDSLKKIEIWKLPPVLLVHLKRFSYDGRWKQKLQTSVDFPLENLDLSQYVIGPKNNLKKYNLFSVSNHYGGLDGGHYTAYCKNAARQRWFKFDDHEVSDISVSSVKSSAAYILFYTSLGPRVTDVAT
As for B1, the binding entry was “binds”.
